This note sets out measurements from paper PMC4045235.

By UniProt entry, the sequences of proteins in these tests, tags left out. Residues count along the entry.
UniProt Q13242: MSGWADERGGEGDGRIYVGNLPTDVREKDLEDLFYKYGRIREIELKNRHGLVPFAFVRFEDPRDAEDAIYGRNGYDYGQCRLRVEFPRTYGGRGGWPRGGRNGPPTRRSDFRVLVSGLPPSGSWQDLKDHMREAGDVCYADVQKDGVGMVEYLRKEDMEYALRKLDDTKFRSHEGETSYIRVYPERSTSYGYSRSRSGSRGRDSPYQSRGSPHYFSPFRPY
UniProt P67809: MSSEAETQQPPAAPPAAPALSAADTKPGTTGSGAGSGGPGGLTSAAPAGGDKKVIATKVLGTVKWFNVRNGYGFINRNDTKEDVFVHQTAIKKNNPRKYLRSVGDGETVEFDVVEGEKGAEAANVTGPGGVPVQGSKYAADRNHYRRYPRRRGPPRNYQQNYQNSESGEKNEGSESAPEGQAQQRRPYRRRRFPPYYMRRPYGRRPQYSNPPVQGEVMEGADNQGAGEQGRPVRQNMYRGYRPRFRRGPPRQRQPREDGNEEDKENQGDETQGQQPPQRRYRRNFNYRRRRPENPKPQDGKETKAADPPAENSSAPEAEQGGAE
UniProt Q15717: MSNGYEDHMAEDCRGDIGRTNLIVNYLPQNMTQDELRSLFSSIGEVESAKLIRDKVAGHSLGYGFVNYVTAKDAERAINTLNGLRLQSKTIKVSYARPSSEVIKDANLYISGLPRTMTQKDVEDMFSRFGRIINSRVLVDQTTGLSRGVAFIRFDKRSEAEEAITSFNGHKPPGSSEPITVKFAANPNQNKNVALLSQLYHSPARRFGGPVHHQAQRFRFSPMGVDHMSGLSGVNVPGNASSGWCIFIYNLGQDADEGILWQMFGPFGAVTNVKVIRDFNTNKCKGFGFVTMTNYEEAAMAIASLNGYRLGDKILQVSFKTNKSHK
UniProt P08238: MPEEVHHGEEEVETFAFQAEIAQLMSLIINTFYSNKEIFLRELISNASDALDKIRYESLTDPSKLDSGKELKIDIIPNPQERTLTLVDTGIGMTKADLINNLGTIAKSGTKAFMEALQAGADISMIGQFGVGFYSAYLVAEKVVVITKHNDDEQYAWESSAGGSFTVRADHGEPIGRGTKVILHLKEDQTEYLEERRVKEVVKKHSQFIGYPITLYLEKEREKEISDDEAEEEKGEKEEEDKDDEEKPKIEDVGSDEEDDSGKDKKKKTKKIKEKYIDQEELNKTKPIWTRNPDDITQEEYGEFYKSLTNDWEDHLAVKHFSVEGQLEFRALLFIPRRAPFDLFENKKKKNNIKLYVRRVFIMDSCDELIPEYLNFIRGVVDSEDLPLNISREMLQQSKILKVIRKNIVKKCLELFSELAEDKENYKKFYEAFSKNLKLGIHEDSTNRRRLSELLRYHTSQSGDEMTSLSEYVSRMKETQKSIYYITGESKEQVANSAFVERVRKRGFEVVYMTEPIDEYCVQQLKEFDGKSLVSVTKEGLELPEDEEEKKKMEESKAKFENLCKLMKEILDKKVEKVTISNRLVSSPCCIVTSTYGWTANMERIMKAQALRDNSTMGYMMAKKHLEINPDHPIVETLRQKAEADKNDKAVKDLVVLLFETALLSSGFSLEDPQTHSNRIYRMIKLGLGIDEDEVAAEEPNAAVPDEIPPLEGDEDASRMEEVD
UniProt P15924: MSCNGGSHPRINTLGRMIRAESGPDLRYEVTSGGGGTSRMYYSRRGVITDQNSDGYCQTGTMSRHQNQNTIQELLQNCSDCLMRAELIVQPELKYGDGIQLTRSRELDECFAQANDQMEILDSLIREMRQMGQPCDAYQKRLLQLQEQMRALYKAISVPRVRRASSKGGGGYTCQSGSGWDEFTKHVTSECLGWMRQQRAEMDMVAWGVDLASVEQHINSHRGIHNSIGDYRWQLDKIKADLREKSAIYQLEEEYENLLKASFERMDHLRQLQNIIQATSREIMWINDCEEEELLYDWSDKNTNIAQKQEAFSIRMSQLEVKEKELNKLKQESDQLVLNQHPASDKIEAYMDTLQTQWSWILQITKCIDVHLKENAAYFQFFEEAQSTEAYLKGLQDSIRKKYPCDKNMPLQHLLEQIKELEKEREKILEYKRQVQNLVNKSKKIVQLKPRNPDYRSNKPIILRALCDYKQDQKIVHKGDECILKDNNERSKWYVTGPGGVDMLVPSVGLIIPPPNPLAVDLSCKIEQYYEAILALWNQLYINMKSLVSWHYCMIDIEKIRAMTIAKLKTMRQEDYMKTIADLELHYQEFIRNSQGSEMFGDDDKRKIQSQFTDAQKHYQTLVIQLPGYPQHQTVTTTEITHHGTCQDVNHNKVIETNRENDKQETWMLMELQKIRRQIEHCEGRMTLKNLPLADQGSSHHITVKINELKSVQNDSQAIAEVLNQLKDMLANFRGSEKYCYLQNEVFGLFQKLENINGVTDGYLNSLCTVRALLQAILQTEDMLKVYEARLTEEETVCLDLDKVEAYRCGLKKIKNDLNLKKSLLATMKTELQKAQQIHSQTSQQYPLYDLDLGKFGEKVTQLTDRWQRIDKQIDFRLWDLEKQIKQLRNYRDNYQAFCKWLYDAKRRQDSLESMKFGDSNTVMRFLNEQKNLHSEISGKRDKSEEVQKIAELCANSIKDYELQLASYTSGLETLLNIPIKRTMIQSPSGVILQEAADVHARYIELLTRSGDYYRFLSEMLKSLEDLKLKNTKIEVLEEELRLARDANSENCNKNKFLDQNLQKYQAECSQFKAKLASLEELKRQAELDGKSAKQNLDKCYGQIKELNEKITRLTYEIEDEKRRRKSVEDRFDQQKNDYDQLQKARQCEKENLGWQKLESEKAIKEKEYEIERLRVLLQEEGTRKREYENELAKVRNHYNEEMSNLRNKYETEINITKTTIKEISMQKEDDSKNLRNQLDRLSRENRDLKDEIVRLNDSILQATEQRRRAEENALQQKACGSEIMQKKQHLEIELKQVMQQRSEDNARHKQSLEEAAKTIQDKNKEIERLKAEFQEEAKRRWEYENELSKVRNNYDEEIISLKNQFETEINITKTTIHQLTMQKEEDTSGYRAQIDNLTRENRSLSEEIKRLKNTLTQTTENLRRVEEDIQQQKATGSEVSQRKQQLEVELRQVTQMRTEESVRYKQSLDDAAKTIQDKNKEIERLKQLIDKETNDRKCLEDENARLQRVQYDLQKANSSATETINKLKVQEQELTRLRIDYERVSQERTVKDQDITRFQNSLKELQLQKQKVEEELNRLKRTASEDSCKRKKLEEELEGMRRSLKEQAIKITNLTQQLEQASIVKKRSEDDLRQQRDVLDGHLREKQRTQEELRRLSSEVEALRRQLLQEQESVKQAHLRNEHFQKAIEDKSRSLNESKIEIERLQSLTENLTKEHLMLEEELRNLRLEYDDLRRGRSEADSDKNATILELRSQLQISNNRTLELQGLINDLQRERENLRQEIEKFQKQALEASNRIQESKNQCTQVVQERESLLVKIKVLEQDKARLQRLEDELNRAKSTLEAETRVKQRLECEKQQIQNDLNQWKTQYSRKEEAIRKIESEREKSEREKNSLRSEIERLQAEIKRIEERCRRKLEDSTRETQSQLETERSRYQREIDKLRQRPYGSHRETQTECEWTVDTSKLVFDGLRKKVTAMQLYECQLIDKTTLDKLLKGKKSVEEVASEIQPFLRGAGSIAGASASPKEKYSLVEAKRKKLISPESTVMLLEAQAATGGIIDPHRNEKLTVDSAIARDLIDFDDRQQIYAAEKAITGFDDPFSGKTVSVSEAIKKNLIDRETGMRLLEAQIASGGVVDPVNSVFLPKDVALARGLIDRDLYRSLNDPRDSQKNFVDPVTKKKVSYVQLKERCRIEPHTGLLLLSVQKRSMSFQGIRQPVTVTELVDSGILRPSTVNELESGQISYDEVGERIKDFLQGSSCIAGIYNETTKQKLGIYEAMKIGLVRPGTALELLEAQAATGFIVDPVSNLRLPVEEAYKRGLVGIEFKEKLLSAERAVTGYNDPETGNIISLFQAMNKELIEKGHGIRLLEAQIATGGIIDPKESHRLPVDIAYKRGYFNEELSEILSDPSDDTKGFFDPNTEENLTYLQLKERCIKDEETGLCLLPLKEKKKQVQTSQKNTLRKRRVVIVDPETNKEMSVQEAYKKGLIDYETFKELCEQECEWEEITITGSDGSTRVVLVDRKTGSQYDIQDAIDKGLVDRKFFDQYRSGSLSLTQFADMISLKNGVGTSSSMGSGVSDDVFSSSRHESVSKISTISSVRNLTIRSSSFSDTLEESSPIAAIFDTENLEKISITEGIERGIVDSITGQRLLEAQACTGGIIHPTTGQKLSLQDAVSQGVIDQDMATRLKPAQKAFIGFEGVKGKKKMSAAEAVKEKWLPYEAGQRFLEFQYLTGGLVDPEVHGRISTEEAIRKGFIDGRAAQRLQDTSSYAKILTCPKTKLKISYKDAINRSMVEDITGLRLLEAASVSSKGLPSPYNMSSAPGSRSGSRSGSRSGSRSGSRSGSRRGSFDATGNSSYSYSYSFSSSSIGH
UniProt Q92769: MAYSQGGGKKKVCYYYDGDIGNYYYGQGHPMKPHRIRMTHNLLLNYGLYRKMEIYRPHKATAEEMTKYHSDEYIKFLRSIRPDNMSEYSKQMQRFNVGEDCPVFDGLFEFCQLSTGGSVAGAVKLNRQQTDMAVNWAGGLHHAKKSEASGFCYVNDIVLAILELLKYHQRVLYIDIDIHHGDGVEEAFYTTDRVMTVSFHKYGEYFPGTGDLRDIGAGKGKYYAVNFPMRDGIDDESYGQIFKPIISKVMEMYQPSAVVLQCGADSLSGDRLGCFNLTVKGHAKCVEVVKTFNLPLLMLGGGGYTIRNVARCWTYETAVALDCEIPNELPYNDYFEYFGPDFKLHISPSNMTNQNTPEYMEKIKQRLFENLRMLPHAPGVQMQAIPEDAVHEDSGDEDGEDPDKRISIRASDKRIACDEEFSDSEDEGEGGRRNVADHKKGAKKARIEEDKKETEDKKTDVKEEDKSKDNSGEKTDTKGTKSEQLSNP
UniProt P30101, residues 25-505: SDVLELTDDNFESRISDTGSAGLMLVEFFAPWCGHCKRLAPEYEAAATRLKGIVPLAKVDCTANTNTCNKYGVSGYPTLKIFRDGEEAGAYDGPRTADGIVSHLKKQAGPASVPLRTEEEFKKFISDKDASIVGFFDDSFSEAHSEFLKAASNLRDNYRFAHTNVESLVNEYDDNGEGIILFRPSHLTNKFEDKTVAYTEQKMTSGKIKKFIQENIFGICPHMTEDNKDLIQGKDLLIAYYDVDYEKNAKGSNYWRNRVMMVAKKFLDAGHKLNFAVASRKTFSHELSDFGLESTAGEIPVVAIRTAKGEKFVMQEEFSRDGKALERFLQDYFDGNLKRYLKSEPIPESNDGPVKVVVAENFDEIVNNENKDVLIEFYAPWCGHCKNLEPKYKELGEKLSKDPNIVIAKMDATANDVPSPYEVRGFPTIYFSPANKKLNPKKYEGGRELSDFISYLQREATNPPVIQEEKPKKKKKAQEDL
UniProt P12956: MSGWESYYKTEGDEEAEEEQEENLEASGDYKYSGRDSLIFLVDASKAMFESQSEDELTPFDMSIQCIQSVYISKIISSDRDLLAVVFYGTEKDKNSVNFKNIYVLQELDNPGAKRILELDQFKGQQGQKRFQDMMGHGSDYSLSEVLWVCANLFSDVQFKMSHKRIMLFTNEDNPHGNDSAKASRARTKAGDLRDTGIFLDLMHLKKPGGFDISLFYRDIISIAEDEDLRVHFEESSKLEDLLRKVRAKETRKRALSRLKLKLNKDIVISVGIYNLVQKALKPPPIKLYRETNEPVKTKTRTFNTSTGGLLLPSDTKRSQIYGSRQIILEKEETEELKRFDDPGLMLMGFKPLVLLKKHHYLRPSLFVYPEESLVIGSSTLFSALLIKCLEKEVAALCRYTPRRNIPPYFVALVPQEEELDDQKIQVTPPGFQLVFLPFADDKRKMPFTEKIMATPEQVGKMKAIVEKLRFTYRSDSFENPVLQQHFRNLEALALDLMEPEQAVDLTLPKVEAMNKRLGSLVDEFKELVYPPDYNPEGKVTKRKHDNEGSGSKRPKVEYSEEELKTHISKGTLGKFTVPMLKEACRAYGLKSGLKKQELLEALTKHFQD
UniProt P06733: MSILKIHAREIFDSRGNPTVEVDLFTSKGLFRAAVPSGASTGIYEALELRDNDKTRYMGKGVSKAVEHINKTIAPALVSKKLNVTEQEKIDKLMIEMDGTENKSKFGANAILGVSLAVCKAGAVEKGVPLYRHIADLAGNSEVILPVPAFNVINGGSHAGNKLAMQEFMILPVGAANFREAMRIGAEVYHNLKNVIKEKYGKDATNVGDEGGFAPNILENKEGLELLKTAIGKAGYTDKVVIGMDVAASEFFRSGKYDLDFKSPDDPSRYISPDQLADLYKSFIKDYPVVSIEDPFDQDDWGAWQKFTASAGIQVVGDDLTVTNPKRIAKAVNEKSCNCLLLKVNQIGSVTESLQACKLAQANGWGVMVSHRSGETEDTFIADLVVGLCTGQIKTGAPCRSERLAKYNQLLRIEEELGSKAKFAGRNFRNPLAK

Results are given in words; binding and its absence hold for the method and conditions named. Binding seen in cells or lysates may run through a third protein. Here binding means that the protein was enriched with, or labelled near, the bait; the list need not be complete.

Common to all, as to test: affinity purification with mass spectrometry; lysates of HEK293 cells transfected with CUL7, V5-OBSL1 or CCDC8, 24 h post-transfection; IP with CUL7, V5 or CCDC8 antibody on protein G Dynabeads; SDS-PAGE, GeLC-MS/MS; proteins found in no antibody control IPs removed; only proteins present in all three IPs kept
The target in one assay is T1, CCDC8 (UniProt Q9H0W5).
T1 sequence: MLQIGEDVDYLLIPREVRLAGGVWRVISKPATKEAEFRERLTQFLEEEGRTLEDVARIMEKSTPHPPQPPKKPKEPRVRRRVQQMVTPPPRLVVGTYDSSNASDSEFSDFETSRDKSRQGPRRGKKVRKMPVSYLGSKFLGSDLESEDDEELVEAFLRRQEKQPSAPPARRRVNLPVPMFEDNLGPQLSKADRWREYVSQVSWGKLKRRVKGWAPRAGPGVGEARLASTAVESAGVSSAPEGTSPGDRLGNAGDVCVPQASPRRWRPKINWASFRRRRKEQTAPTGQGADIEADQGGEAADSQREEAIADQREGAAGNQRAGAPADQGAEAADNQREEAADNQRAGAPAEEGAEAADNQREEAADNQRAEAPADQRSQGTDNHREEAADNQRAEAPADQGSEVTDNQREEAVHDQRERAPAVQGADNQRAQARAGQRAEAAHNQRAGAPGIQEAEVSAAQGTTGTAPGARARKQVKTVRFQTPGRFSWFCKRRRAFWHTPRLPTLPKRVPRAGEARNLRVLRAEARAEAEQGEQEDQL

In a further assay the target is CUL7 (UniProt Q14999).
Another assay has as its target V5-OBSL1 (UniProt O75147).

Consider DSG2 (from UniProt Q14126 50-1118), for which the binding entry with CCDC8, with CUL7 and with V5-OBSL1 was “binds” each time.
In the case of HSPA9 (from UniProt P38646 47-679), the binding result with CCDC8, with CUL7 and in the assay with V5-OBSL1 was “binds” throughout.
With PLEC (from UniProt Q15149 1-4684), the binding entry with CCDC8, in the assay with CUL7 and with V5-OBSL1 was “binds” throughout.
With SRSF9 (from UniProt Q13242 1-221), the binding entry in the assay with CCDC8, with CUL7 and with V5-OBSL1 was “binds” throughout.
On to CCT8 (from UniProt P50990 1-548), for which the binding result in the assay with CCDC8, with CUL7 and with V5-OBSL1 was “binds” throughout.
ACTN4 (from UniProt O43707 1-911): the binding entry with CCDC8, with CUL7 and in the assay with V5-OBSL1 was “binds” throughout.
Turning to TPR (from UniProt P12270 1-2363), the binding entry with CCDC8, with CUL7 and with V5-OBSL1 was “binds” in each case.
On to TJP1 (from UniProt Q07157 1-1748), for which the binding result in the assay with CCDC8, in the assay with CUL7 and with V5-OBSL1 was “binds” throughout.
On to YBX1 (from UniProt P67809 1-324), for which the binding entry with CCDC8, in the assay with CUL7 and with V5-OBSL1 was “binds” each time.
As for LMNA (from UniProt P02545 1-646), the binding result in the assay with CCDC8, with CUL7 and with V5-OBSL1 was “binds” in each case.
Take PARP1 (from UniProt P09874 1-1014): the binding result with CCDC8, in the assay with CUL7 and in the assay with V5-OBSL1 was “binds” each time.
For the substance HSP90B1 (from UniProt P14625 22-803), the binding result with CCDC8, with CUL7 and in the assay with V5-OBSL1 was “binds” in each case.
Turning to ELAVL1 (from UniProt Q15717 1-326), the binding entry in the assay with CCDC8, with CUL7 and with V5-OBSL1 was “binds” throughout.
As for IGF2BP3 (from UniProt O00425 1-579), the binding entry in the assay with CCDC8, with CUL7 and with V5-OBSL1 was “binds” throughout.
As to NOP56 (from UniProt O00567 1-594), the binding result in the assay with CCDC8, with CUL7 and with V5-OBSL1 was “binds” in each case.
LMNB1 (from UniProt P20700 1-586): the binding result with CCDC8, with CUL7 and in the assay with V5-OBSL1 was “binds” each time.
Take EIF4A1 (from UniProt P60842 1-406): the binding result with CCDC8, with CUL7 and with V5-OBSL1 was “binds” in each case.
Regarding KRT5 (from UniProt P13647 1-590), the binding result in the assay with CCDC8, with CUL7 and with V5-OBSL1 was “binds” throughout.
In the case of EEF1A1 (from UniProt P68104 1-462), the binding entry with CCDC8, with CUL7 and with V5-OBSL1 was “binds” each time.
On to HSPD1 (from UniProt P10809 27-573), for which the binding result in the assay with CCDC8, with CUL7 and in the assay with V5-OBSL1 was “binds” in each case.
For the substance YWHAE (from UniProt P62258 1-255), the binding result with CCDC8, with CUL7 and in the assay with V5-OBSL1 was “binds” in each case.
On to CLTC (from UniProt Q00610 1-1675), for which the binding entry with CCDC8, with CUL7 and with V5-OBSL1 was “binds” throughout.
In the case of PABPC1 (from UniProt P11940 1-636), the binding result with CCDC8, in the assay with CUL7 and with V5-OBSL1 was “binds” throughout.
In the case of SNRNP200 (from UniProt O75643 1-2136), the binding result with CCDC8, in the assay with CUL7 and with V5-OBSL1 was “binds” in each case.
Regarding HSP90AB1 (from UniProt P08238 1-724), the binding entry with CCDC8, in the assay with CUL7 and in the assay with V5-OBSL1 was “binds” in each case.
Regarding DSP (from UniProt P15924 1-2871), the binding entry in the assay with CCDC8, with CUL7 and in the assay with V5-OBSL1 was “binds” in each case.
With HDAC2 (from UniProt Q92769 1-488), the binding entry with CCDC8, in the assay with CUL7 and with V5-OBSL1 was “binds” throughout.
Consider XRCC5 (from UniProt P13010 1-732), for which the binding entry with CCDC8, in the assay with CUL7 and with V5-OBSL1 was “binds” each time.
Turning to PDIA3 (from UniProt P30101 25-505), the binding result with CCDC8, with CUL7 and with V5-OBSL1 was “binds” throughout.
With RBMX (from UniProt P38159 1-391), the binding entry with CCDC8, with CUL7 and in the assay with V5-OBSL1 was “binds” each time.
As to COPA (from UniProt P53621 1-1224), the binding entry with CCDC8, with CUL7 and with V5-OBSL1 was “binds” in each case.
As to HSPA5 (from UniProt P11021 19-654), the binding result in the assay with CCDC8, with CUL7 and in the assay with V5-OBSL1 was “binds” in each case.
As for XRCC6 (from UniProt P12956 1-609), the binding entry with CCDC8, with CUL7 and in the assay with V5-OBSL1 was “binds” each time.
Take TRIM28 (from UniProt Q13263 1-835): the binding result with CCDC8, with CUL7 and with V5-OBSL1 was “binds” each time.
As for DDX5 (from UniProt P17844 1-614), the binding entry with CCDC8, with CUL7 and with V5-OBSL1 was “binds” each time.
For the substance TP53 (from UniProt P04637 1-393), the binding result in the assay with CCDC8 and with V5-OBSL1 was “binds” in each case.
In the case of IQGAP1 (from UniProt P46940 1-1657), the binding entry with CCDC8, with CUL7 and in the assay with V5-OBSL1 was “binds” in each case.
On to GAPDH (from UniProt P04406 1-335), for which the binding result with CCDC8, in the assay with CUL7 and with V5-OBSL1 was “binds” in each case.
In the case of HNRNPH1 (from UniProt P31943 1-449), the binding result with CCDC8, with CUL7 and with V5-OBSL1 was “binds” each time.
Regarding CAD (from UniProt P27708 1-2225), the binding entry with CCDC8, with CUL7 and with V5-OBSL1 was “binds” in each case.
For the substance ENO1 (from UniProt P06733 1-434), the binding entry with CCDC8, in the assay with CUL7 and in the assay with V5-OBSL1 was “binds” each time.
In the case of KPNB1 (from UniProt Q14974 1-876), the binding result in the assay with CCDC8, with CUL7 and with V5-OBSL1 was “binds” each time.
For NUP205 (from UniProt Q92621 1-2012), the binding entry with CCDC8, with CUL7 and in the assay with V5-OBSL1 was “binds” each time.
For FLNA (from UniProt P21333 1-2647), the binding result in the assay with CCDC8, in the assay with CUL7 and in the assay with V5-OBSL1 was “binds” each time.
As for NUMA1 (from UniProt Q14980 1-2115), the binding entry in the assay with CCDC8, with CUL7 and with V5-OBSL1 was “binds” each time.
With EEF1G (from UniProt P26641 1-437), the binding result with CCDC8, with CUL7 and in the assay with V5-OBSL1 was “binds” in each case.
For the substance NPM1 (from UniProt P06748 1-294), the binding entry with CCDC8, with CUL7 and with V5-OBSL1 was “binds” in each case.
Consider ATP5B (from UniProt P06576 48-529), for which the binding entry with CCDC8, with CUL7 and in the assay with V5-OBSL1 was “binds” each time.
